Data on one substance can be found in PMC5493768.

By UniProt entry, the sequences of proteins in these tests, tags left out.
UniProt Q4JK59: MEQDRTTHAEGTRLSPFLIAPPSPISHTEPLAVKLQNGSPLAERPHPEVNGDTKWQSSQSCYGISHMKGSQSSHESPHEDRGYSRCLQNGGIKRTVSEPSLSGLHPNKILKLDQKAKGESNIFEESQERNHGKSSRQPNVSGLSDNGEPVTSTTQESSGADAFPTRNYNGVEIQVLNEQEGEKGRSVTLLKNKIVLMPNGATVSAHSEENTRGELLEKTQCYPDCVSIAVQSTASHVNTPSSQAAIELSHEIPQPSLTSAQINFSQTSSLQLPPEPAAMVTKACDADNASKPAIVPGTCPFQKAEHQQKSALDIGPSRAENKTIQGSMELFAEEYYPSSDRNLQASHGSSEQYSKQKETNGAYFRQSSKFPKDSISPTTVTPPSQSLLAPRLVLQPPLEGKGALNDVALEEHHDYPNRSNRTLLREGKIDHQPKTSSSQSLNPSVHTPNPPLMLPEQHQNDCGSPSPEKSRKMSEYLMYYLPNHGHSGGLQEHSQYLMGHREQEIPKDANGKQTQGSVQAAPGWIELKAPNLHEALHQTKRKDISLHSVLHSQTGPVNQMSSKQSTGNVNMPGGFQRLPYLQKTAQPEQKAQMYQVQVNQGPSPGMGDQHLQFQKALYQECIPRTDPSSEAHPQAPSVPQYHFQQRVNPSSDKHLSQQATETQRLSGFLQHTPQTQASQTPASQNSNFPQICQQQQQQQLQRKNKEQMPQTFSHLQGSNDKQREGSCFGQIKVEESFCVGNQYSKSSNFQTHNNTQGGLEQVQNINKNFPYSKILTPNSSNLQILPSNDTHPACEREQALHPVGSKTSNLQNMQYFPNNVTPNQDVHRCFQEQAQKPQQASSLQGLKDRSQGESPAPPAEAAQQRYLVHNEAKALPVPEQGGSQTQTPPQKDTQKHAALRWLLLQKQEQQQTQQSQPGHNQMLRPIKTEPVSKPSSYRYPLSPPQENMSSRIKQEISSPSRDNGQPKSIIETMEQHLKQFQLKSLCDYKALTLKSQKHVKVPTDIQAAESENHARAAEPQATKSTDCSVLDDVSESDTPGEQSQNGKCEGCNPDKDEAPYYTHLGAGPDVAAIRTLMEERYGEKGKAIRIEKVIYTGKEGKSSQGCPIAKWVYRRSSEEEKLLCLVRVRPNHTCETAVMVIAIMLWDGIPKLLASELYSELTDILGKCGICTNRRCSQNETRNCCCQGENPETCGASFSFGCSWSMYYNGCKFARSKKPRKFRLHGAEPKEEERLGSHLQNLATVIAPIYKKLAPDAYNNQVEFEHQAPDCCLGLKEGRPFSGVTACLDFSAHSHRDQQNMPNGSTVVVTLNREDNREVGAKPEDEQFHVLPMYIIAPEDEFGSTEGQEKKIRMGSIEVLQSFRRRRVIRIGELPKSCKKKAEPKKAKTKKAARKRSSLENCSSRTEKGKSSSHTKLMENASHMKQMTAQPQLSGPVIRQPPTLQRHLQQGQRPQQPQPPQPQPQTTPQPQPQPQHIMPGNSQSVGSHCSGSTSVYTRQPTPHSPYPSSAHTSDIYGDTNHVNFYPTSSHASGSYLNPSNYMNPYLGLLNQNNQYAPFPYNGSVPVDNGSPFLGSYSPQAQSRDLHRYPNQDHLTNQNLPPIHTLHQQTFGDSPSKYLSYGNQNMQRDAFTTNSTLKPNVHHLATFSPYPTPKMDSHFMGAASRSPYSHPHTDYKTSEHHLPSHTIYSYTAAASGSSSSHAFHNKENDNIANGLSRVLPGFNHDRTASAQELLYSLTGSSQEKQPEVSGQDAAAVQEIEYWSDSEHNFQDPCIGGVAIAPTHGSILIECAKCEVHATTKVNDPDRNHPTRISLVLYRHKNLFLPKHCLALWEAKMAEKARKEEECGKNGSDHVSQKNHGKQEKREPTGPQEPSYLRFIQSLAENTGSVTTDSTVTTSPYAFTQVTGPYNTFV
UniProt Q9WVH4: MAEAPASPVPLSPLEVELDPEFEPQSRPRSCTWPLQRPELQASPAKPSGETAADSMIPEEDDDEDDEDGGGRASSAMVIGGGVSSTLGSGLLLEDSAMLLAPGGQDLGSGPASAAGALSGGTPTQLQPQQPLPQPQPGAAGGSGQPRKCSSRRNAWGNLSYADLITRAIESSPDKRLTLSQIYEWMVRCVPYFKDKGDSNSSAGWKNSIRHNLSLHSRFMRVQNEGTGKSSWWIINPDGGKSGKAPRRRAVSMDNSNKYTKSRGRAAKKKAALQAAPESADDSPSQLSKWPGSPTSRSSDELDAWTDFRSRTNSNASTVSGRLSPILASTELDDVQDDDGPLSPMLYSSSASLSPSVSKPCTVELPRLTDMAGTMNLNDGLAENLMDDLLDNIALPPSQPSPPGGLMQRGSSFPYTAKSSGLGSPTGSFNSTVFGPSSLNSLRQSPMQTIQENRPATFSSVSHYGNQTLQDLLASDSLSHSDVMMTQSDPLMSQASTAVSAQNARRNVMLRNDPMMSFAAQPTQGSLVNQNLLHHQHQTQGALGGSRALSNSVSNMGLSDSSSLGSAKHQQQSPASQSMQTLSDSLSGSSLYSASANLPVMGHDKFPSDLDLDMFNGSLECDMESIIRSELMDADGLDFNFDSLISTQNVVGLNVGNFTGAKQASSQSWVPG

The target in the test is Ten-eleven translocation 2 (Tet2), endogenous (mouse (endogenous in aNSCs)) (UniProt Q4JK59). The test can be described thus: co-IP; endogenous proteins in WT aNSC lysate (RIPA buffer, brief sonication); IP with anti-Foxo3a and anti-Tet2 antibodies overnight, western blot. (A western blot detects proteins with antibodies after separation by electrophoresis.)

Results are given in words; binding and its absence hold for the method and conditions named. Binding seen in cells or lysates may run through a third protein. Some results given as binding are weak or reduced against the parent protein; the word gives no strength.

On to “Forkhead box O3 (Foxo3a), endogenous (from UniProt Q9WVH4 1-672)”, for which the binding entry is “binds”.
